Data published in the supplement of paper PMC12823440, “Inhibitors supercharge kinase turnover through native proteolytic circuits” (Nature, 2025).
The list shows a part of the results. The calls rarely recur for the same compound in another form.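 In K562 cells expressing nanoluciferase-fused kinases, luminescence was recorded at 4 h intervals between 2 and 18 h, normalized as percent of control with DMSO at 100% and a positive control at 0%. A significant (2 sigma) signal drop marks a time point as decreased. The authors' rule for a hit is not shown and takes in more than the number of time points.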

The chains behind the UniProt entries cited, without tags or fusion partners. Where a name states a change or a piece, a line headed by the entry shows the natural chain unless it says otherwise.
UniProt P49137, whole entry, looked up: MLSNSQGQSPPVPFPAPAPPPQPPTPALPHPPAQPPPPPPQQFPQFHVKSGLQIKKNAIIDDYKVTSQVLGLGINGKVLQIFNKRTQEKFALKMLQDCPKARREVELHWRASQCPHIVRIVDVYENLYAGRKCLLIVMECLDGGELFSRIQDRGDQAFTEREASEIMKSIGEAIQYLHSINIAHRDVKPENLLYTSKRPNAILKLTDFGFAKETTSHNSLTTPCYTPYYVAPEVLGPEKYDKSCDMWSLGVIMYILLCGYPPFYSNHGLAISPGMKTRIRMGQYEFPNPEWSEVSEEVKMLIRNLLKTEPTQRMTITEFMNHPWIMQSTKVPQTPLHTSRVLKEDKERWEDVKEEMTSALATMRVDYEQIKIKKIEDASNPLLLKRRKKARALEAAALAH
UniProt Q16620, whole entry, looked up: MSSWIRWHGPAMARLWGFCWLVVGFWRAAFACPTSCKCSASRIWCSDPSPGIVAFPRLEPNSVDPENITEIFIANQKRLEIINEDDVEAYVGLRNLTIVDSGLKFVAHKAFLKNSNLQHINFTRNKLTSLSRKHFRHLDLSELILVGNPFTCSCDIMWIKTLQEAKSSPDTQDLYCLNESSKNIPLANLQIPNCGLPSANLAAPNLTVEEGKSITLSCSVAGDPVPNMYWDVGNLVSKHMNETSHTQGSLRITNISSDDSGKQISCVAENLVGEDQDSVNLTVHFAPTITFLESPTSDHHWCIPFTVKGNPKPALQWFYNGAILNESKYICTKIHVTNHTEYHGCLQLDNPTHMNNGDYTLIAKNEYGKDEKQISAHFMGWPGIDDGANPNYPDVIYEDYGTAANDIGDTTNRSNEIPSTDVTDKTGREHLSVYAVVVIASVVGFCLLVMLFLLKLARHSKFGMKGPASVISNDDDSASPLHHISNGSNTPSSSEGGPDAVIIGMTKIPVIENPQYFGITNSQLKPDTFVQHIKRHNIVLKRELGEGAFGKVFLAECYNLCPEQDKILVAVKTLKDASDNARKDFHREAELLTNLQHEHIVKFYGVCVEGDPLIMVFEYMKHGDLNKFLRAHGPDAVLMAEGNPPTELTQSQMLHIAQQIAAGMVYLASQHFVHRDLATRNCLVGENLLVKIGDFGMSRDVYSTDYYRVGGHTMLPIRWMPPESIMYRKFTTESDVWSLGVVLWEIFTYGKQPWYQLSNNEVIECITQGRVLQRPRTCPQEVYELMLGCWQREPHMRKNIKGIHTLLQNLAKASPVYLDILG
UniProt Q16288, whole entry, looked up: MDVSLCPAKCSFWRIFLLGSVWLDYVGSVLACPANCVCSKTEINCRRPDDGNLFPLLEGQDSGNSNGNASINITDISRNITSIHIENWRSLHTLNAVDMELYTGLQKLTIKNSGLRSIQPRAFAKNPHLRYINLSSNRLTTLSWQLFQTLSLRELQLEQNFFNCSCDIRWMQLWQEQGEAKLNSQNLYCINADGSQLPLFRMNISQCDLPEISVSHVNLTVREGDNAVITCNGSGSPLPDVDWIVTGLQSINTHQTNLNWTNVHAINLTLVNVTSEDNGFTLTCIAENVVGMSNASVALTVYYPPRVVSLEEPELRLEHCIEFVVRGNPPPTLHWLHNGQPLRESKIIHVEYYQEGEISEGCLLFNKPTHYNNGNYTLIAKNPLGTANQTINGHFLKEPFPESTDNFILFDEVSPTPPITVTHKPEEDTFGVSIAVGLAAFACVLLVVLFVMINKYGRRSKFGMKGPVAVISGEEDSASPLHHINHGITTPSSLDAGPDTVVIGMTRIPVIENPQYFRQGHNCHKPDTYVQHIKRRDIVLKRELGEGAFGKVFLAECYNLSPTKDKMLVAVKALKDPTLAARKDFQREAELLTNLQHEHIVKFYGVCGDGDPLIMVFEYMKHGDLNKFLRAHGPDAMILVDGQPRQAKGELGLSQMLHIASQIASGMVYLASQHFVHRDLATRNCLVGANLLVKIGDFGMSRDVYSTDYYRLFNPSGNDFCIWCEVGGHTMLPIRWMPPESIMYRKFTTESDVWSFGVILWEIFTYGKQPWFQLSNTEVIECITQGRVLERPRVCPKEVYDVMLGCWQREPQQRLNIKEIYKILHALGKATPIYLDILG
UniProt Q15118, whole entry, looked up: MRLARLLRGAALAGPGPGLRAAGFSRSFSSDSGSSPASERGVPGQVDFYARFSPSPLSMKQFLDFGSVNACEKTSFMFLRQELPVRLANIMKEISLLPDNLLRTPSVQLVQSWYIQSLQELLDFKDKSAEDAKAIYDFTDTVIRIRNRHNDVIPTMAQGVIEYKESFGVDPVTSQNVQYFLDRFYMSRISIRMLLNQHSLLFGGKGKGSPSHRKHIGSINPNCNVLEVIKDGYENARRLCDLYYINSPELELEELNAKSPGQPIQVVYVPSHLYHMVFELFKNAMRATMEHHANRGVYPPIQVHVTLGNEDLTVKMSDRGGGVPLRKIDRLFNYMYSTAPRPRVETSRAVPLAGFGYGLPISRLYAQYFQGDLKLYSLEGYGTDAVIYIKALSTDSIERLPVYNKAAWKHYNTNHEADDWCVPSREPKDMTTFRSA
UniProt O15530: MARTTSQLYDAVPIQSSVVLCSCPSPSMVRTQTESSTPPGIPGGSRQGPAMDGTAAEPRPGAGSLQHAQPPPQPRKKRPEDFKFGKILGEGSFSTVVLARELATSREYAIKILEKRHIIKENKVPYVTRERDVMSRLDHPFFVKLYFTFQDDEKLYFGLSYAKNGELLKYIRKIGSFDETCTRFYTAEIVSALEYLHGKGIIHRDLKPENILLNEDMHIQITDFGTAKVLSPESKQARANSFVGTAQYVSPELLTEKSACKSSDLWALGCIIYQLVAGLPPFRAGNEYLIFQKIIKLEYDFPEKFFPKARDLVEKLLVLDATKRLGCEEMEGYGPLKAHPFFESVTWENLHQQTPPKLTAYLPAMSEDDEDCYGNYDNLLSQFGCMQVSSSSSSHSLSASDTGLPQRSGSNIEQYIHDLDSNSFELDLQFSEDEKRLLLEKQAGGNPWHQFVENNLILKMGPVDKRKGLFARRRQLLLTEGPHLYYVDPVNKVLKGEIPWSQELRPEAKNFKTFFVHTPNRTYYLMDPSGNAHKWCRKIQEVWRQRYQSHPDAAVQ
UniProt P42356, whole entry, looked up: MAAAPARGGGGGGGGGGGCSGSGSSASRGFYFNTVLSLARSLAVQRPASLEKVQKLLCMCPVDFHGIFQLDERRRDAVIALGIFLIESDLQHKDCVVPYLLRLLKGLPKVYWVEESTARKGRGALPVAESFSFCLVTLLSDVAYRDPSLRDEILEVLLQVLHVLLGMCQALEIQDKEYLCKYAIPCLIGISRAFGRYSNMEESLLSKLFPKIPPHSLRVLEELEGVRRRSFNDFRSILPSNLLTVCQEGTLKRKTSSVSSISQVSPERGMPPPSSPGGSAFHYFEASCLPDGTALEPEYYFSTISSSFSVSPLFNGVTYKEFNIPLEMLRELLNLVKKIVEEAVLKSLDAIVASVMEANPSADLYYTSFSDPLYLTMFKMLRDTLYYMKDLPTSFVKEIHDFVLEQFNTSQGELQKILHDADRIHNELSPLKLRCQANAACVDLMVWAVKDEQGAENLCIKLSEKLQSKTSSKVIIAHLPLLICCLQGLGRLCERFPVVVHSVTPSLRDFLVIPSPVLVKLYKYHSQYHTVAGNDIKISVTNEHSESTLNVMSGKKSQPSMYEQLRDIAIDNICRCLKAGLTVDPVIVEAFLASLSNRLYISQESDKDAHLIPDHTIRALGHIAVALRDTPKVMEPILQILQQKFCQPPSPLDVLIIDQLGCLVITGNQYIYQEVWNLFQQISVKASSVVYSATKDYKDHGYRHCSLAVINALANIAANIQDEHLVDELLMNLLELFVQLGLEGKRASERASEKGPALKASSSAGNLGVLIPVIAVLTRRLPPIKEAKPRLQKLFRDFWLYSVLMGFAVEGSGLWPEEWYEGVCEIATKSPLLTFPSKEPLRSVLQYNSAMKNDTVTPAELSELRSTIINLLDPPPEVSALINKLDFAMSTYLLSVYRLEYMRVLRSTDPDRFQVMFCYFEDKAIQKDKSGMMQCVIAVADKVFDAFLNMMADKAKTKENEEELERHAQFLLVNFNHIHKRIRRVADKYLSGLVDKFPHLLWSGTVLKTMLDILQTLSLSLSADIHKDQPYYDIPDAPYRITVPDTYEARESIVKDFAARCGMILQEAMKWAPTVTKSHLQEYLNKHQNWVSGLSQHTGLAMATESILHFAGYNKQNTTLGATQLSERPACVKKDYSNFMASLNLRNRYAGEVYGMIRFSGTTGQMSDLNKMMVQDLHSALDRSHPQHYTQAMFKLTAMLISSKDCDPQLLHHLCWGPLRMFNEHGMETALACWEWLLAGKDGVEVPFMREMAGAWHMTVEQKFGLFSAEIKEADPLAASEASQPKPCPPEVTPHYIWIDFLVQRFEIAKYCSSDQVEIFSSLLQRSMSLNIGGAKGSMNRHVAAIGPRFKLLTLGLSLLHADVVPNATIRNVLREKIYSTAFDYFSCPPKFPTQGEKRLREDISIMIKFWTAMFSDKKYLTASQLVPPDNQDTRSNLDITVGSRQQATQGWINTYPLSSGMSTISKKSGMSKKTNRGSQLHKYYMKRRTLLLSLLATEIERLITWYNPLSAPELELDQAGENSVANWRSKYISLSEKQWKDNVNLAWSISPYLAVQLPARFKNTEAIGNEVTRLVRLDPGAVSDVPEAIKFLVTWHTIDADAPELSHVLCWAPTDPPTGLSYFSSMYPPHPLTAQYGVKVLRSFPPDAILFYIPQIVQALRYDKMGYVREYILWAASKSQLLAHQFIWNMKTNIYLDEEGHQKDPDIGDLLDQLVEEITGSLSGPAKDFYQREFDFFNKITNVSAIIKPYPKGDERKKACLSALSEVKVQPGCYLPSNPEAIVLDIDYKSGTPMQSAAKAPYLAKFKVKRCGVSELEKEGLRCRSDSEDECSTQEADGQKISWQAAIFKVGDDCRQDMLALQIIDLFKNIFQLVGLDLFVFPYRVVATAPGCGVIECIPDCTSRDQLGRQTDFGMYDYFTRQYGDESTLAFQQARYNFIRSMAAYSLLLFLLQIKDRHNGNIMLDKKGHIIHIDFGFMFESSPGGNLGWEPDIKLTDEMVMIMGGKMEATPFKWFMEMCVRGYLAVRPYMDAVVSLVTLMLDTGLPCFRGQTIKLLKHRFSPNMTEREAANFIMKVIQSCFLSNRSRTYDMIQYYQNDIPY
UniProt P53350, whole entry: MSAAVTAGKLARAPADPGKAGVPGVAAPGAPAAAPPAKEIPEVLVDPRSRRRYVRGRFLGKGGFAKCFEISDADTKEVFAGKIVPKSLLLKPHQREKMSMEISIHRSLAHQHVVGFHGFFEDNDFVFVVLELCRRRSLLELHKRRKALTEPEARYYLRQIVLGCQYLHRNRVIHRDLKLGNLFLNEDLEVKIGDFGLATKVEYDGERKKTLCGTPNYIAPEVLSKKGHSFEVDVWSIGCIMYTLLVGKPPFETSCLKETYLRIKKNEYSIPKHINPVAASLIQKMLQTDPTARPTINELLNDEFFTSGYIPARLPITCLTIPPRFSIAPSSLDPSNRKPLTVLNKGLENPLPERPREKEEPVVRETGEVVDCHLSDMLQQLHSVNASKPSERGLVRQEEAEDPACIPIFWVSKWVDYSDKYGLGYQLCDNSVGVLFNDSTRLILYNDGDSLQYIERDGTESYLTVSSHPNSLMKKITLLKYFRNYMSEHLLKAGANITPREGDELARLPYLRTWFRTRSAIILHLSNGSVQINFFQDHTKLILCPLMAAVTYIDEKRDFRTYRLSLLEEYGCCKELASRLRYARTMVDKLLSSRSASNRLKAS
UniProt Q13131: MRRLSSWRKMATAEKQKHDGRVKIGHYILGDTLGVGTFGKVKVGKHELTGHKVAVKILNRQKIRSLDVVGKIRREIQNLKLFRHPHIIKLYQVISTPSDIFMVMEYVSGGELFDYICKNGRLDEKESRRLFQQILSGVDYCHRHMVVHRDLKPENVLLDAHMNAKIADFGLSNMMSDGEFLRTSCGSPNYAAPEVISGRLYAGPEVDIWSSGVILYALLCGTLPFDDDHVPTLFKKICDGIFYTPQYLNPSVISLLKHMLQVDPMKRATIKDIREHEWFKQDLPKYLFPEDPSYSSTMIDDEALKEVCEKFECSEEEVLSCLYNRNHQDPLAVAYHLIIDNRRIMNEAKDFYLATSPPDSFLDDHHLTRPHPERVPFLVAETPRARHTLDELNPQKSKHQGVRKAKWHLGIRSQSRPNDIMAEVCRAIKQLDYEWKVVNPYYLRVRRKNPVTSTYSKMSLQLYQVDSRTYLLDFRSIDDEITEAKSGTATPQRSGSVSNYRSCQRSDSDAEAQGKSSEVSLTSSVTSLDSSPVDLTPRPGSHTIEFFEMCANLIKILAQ

Experiments:
Assay in all cases: number of time points (of 5) at which kinase-Nluc abundance scored as decreased, DMSO-normalised (count); higher = more persistent destabilization
Conditions in all cases: K562; 2-18 h
LMTK2 = LMTK2 (UniProt Q8IWU2)
LYN = LYN (UniProt P07948)
MAP2K1 = MAP2K1 (UniProt Q02750)
MAP2K2 = MAP2K2 (UniProt P36507)
MAP4K2 = MAP4K2 (UniProt Q12851)
MAPK1 = MAPK1 (UniProt P28482)
MAPK4 = MAPK4 (UniProt P31152)
MAPKAPK2 = MAPKAPK2 (UniProt P49137)
MKNK1 = MKNK1 (UniProt Q9BUB5)
NTRK2 = NTRK2 (UniProt Q16620)
NTRK3 = NTRK3 (UniProt Q16288)
PAK4 = PAK4 (UniProt O96013)
PBK = PBK (UniProt Q96KB5)
PDGFRB = PDGFRB (UniProt P09619)
PDK1 = PDK1 (UniProt Q15118)
PDPK1 = PDPK1 (UniProt O15530)
PIK4CA = PIK4CA (UniProt P42356)
PIK4CB = PIK4CB (UniProt Q9UBF8)
PLK1 = PLK1 (UniProt P53350)
PRKAA1 = PRKAA1 (UniProt Q13131)

SMILES	number of time points (LMTK2)	number of time points (LYN)	number of time points (MAP2K1)	number of time points (MAP2K2)	number of time points (MAP4K2)	number of time points (MAPK1)	number of time points (MAPK4)	number of time points (MAPKAPK2)	number of time points (MKNK1)	number of time points (NTRK2)	number of time points (NTRK3)	number of time points (PAK4)	number of time points (PBK)	number of time points (PDGFRB)	number of time points (PDK1)	number of time points (PDPK1)	number of time points (PIK4CA)	number of time points (PIK4CB)	number of time points (PLK1)	number of time points (PRKAA1)
C[C@@H]1C[C@H]2O[C@@]3(O[C@@H]2C(C)(C)O)[C@H](O)[C@@]2(C)[C@@H]4CC[C@H]5C(C)(C)[C@@H](O[C@@H]6OC[C@H](O)[C@H](O)[C@H]6O)CC[C@@]56C[C@@]46CC[C@]2(C)[C@@H]13 [Cimiracemoside C] (10 µM)	0	0	0	0	0	0	0	0	0	0	0	0	0	0	0	0	0	0	0	0
CC1(COc2ccc3c(c2)ncn3-c2ccc3cccc(N4CCC(N)CC4)c3n2)COC1 [Crenolanib] (2.5 µM)	3	2	0	0	0	0	0	0	2	0	0	0	0	0	0	0	0	2	0	0
C[C@@H]1O[C@@H](OC[C@H]2O[C@@H](Oc3cc(O)c4c(c3)O[C@H](c3ccc(O)cc3)CC4=O)[C@H](O)[C@@H](O)[C@@H]2O)[C@H](O)[C@H](O)[C@H]1O [Narirutin] (10 µM)	0	0	0	0	0	0	0	0	0	0	0	0	0	0	0	0	0	0	0	0
CCN(C)C(=O)c1ccc2c(C(=Nc3ccc(CN4CCCCC4)cc3)c3ccccc3)c(O)[nH]c2c1 (2.5 µM)	0	0	0	0	0	0	0	0	0	0	0	0	0	0	0	0	0	0	0	0
CCCNC(=O)c1cn2ncnc(Nc3cc(C(=O)NC4CC4)ccc3C)c2c1C (10 µM)	0	0	0	0	0	0	0	0	0	0	0	0	0	0	0	0	0	0	0	0
COc1ccc(CNc2nc(N(CCO)CCO)nc3c2ncn3C(C)C)cc1 (2.5 µM)	2	0	0	0	0	0	0	0	0	0	0	0	0	0	0	1	0	0	0	0
Cc1ccc(-c2ccc3c(ccc4sc5c(c43)NC[C@@H](C)NC5=O)n2)cn1 (10 µM)	0	0	0	0	0	0	0	0	0	0	0	0	0	0	0	0	0	0	0	0
O=c1ccoc2cc(O)ccc12 [7-Hydroxy-4H-chromen-4-one] (10 µM)	0	0	0	0	0	0	0	0	0	0	0	0	0	0	0	0	0	0	0	0
O=C1NC(=O)C(=Cc2ccc3c(c2)OCO3)S1 (10 µM)	0	0	0	0	0	0	0	0	0	0	0	0	0	0	0	0	0	0	0	0
CC[C@@H]1C(=O)N(C)c2cnc(Nc3ccc(C(=O)N[C@H]4CC[C@H](N5CCN(CC6CC6)CC5)CC4)cc3OC)nc2N1C(C)C [Volasertib] (2.5 µM)	0	0	0	0	0	0	0	0	0	0	0	0	0	0	0	0	0	0	0	0
Cc1cc2ncc(-c3ccccc3)nc2cc1C (10 µM)	0	0	0	0	0	0	0	0	0	0	0	0	0	0	0	0	0	0	0	0
O=C(O)c1ccc(-c2c[nH]c3ncc(-c4ccccc4)cc23)cc1C1CCCC1 (2.5 µM)	0	0	0	0	0	0	2	0	0	0	0	0	0	0	0	0	0	0	0	0
NC(=O)c1ccc(-c2cnn3ccc(NCc4cccnc4)nc23)cc1 (2.5 µM)	0	0	0	0	0	0	0	0	0	0	0	0	0	0	0	0	0	0	0	0
O[C@H]1CC[C@H](Nc2ncc3nc(Nc4c(F)cc(F)cc4F)n([C@H]4CCOC4)c3n2)CC1 [Tanzisertib] (10 µM)	0	0	0	0	0	0	0	0	0	0	0	0	0	0	0	0	0	0	0	0
O=C1NC(=O)C(c2cnc3ccccn23)=C1c1cn2c3c(cc(F)cc13)CN(C(=O)N1CCCCC1)CC2 (2.5 µM)	0	0	0	0	0	0	0	0	0	0	0	0	0	0	0	0	0	0	0	0
C[C@@H]1COCCN1c1cc(C2([S@](C)(=N)=O)CC2)nc(-c2cc[nH]c3nccc2-3)n1 [Ceralasertib] (2.5 µM)	0	0	0	0	0	0	0	0	0	0	0	0	0	0	0	0	0	0	0	0
C=C[C@H]1[C@H](O[C@@H]2O[C@H](CO)[C@@H](O)[C@H](O)[C@H]2OC(=O)c2c(O)cc(O)cc2-c2cccc(O)c2)OC=C2C(=O)OCC[C@H]21 [Amarogentin] (10 µM)	0	0	0	0	0	0	0	0	0	0	0	0	0	0	0	0	0	0	0	0
CC(C)N(C)c1nc2cc(C(=O)O)ccc2nc1-c1ccc(F)cc1 (10 µM)	0	0	0	0	0	0	0	0	0	0	0	0	0	0	0	0	0	0	0	0
COc1cc(C(=O)N2CCC(N3CCN(C)CC3)CC2)ccc1Nc1ncc2c(n1)N(C)c1ccccc1C(=O)N2C (10 µM)	0	0	0	0	0	0	0	0	0	0	0	0	0	0	0	0	0	0	0	0
Nc1ncc(-c2ccc(C(=O)N3CCNCC3)cc2)nc1-c1ccc(C(F)(F)F)cc1 (10 µM)	0	0	0	0	0	0	0	0	0	0	0	0	0	0	0	0	0	0	0	0
N#Cc1ccc(-c2c(-c3ncn[nH]3)sc(N3CCOCC3)c2C#N)c(F)c1 (10 µM)	0	0	0	0	0	0	0	0	0	0	0	0	0	0	0	1	0	0	0	0
Cn1cc(-c2ccc3nnc(C(F)(F)c4ccc5ncccc5c4)n3n2)cn1 (10 µM)	0	0	0	0	0	0	0	0	0	0	0	0	0	0	0	0	0	0	0	0

Filtered by structure: the entries above containing sulfur (four)
SMILES	number of time points (LMTK2)	number of time points (LYN)	number of time points (MAP2K1)	number of time points (MAP2K2)	number of time points (MAP4K2)	number of time points (MAPK1)	number of time points (MAPK4)	number of time points (MAPKAPK2)	number of time points (MKNK1)	number of time points (NTRK2)	number of time points (NTRK3)	number of time points (PAK4)	number of time points (PBK)	number of time points (PDGFRB)	number of time points (PDK1)	number of time points (PDPK1)	number of time points (PIK4CA)	number of time points (PIK4CB)	number of time points (PLK1)	number of time points (PRKAA1)
Cc1ccc(-c2ccc3c(ccc4sc5c(c43)NC[C@@H](C)NC5=O)n2)cn1 (10 µM)	0	0	0	0	0	0	0	0	0	0	0	0	0	0	0	0	0	0	0	0
O=C1NC(=O)C(=Cc2ccc3c(c2)OCO3)S1 (10 µM)	0	0	0	0	0	0	0	0	0	0	0	0	0	0	0	0	0	0	0	0
C[C@@H]1COCCN1c1cc(C2([S@](C)(=N)=O)CC2)nc(-c2cc[nH]c3nccc2-3)n1 [Ceralasertib] (2.5 µM)	0	0	0	0	0	0	0	0	0	0	0	0	0	0	0	0	0	0	0	0
N#Cc1ccc(-c2c(-c3ncn[nH]3)sc(N3CCOCC3)c2C#N)c(F)c1 (10 µM)	0	0	0	0	0	0	0	0	0	0	0	0	0	0	0	1	0	0	0	0
